Screening data

Data taken from PubChem BioAssay AID1159506, deposited by NCATS (2015).

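Genome-wide siRNA knockdown in TC32 Ewing sarcoma cells, comparing luciferase light from an NR0B1-promoter reporter with a CMV-promoter reporter 48 hours after transfection. Each siRNA was applied at 20 nM. A z-score of the log NR0B1-over-CMV signal, less the median of siRNAs with the same seed; more negative means a stronger specific loss of the NR0B1 reporter.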

This is part of the screen; most of the strongest results are not listed here. Sequences are the guide (antisense) strand, without overhang.

Sequence,gene,seed-corrected z-score
UCUGGGUUCACUUUGCUCA,NSMF,1.745
UCACGUCAGGGAACUGUGG,IRGC,-0.005646
UGGGAGAUUACACUAGGCC,ZNF774,-0.07214
UUUCCUCAACCUUUUCUGC,RASA4CP,-0.581
UCACUUAUCAGGCUCAUGA,PPP2R5D,-0.1793
UUUUAGUCUUUCGAUUUUC,UTP11L,0.9678
UUUCUGUAACAUUUCAGAC,FMR1NB,0.4414
UGAGUGCUGAUAACUGUUG,KRT6B,0.2551
UACUCGCUCCUUAUAUUGC,CCDC82,-0.02503
UUCCCGAUGAGAGAGGUUG,ETV6,0.1551
UCUGUGAUGGGUGCUAAGG,LOC345051,0.5287
UCGCGGGUCAUUUCACUGA,SELM,0.4585
UACUCAUCCAGGCAGAUGG,ZNRF4,1.106
AAGCGUAUAGAUUCAGGUG,DGKK,-1.282
UUGAGCUUGACAUUGCCCG,PITHD1,0.2309
UCAACAUUGUCAAUUUUCC,ENTPD6,0.3958
AUAUGUAAGAUUUAGUUGU,VMA21,0.3748
AUAAUCGUAAUUGCAGGUC,PLPPR4,1.169
UACUUGAUCCUGACAGUUC,PDZD2,-0.6208
AUCUCUAUAACCUUCUUUG,YAE1D1,0.1266
UUUGGACAUCGGGAGCUGC,PUDP,-0.2129
AAACUGUCCGGAGAGUGGC,FOXD3,-0.6646
UUAGGUGCUGCUUUGAGGC,DIO3,-1.163
UCCUCCACAGCUCCAUUGC,CD44,-0.4145
UGCUCGUUCAGUUUGGUGG,TMEM63C,-1.539
AAGGAUACUAGCACCAAUG,ASIC2,0.3932
AAAGGGUCUAACUGAGGGC,LSM14A,-1.786
UUAAGUCUGACAAGAGUGC,PRDX3,-0.07846
AAUGUGACAUAUUCUCUCG,ADAMTS13,0.3968
UUGGGUUUGACAUCCACCG,SALL4,-1.213
AAAGCUUCCACAUCAGUCC,PAGE5,-0.6644
UCCCUAAGUAGUUAAGCUC,DHRS7,0.05001
UUAGAAUCCAGGGAUACGA,PRR27,-0.7882
UUUGCGAAAACGAAACUUU,GMFB,0.9982
UUGGGUUCAGCCUUAGCCU,SMTNL1,0.2733
AUAGAUCUGAGUGAGCUCC,APOL3,0.1186
AAACGUAAAGACAGCAACC,CYB561A3,-0.2089
UGAUCUAUCAGGUGAAAGC,MTF1,0.4209
AUGAUGUUCAGGGCGAUGG,FBLN2,-1.235
UGCUGUCCAAAGAAAUCUG,TCAIM,-1.883
UGCAGAACUGGGUCAGAGC,PPCDC,0.5446
AACUAAGAAGGAGUUAUGG,SLC38A11,-0.08451
UUGACAUCAGAGGCAAUGC,CERS2,0.7387
UUCUGGACCACCGUCACGU,CARKD,0.06233
AAUUGGAUCACCAGAUUCC,TNFSF8,1.616
AAGUUUGAUGGUAAGGCUC,PPP1R11,0.002227
UUAGUUCCCACGUGUAUUC,PNPLA5,0.5884
UUCAGACCCAGAUACCACC,FGF13,-0.09554
AUAAUAAUCAGCACUUCUU,OR9Q1,0.7007
UAGUUAUCCCUCAAGUUGC,PDIA3,0.6081
UGGAUUGUAAUUUGGAUCC,DERL2,0.206
UUAGUAAGUAAUCAAAUCC,EEF2K,-0.7646
AAGCUUAGUACACUCAUCC,PIWIL2,0.6829
ACAUCUAUAAAGACCGUCC,MORC4,0.6427
UUCUCGGACAUUCACAGGC,AARSD1,0.368
UCCAGGUAGGUGUUCUUCC,PTCD1,-0.9672
UUCCUUUUUCGGCACUUGG,JUN,0.3565
ACAGAGGUAAUACCUGUCC,LOC644145,-0.7449
AAAUAUGUCAACAUCUUCC,ACAT2,-0.3536
UAAGCGGUCAUCCCAAAGC,TSC22D3,0.06742
UUUAGAAAAGACACUCUCU,FAAP100,0.2679
AUCCUUAUCAGCACUGCAG,PRMT2,0.2684
UUCUCAUUCAUGGAGACGG,SULT4A1,-1.124
UUCACAACCUUGUAGAUGC,UHRF1,-0.305
AACGUGAGAAGGAUGGAUC,ATXN2,-0.6103
UCUCAAUCAUGUAAUACGG,ANKEF1,0.1797
UGAACUGGUAGAUCUGGUG,ADM,-1.062
UCUAUGUUAAAGUCAGUAC,FUT10,0.7499
UCCAUUUCUGGAAUCCUGU,REG1A,-0.1193
UUAGACACCGCCUUCAAUC,NEK1,-0.6534
UCUCUAUCCAAGAAGAGCC,EOMES,-0.01424
UAUUGGGCAAGACACCACC,HIST1H2AH,0.09407
UGUUCUCAAAGUACAGGUC,MMEL1,0.8391
AUCAUAGUAGGGAAGAUGG,EMC4,1.232
UCUUUUGUAGGACUCAGGG,IL33,0.2018

9 of the entries, repeated:

{"sequence": "UUCCCGAUGAGAGAGGUUG", "gene": "ETV6", "seed-corrected z-score": "0.1551"}
{"sequence": "UUAGGUGCUGCUUUGAGGC", "gene": "DIO3", "seed-corrected z-score": "-1.163"}
{"sequence": "AAUUGGAUCACCAGAUUCC", "gene": "TNFSF8", "seed-corrected z-score": "1.616"}
{"sequence": "UGCUCGUUCAGUUUGGUGG", "gene": "TMEM63C", "seed-corrected z-score": "-1.539"}
{"sequence": "UUCUGGACCACCGUCACGU", "gene": "CARKD", "seed-corrected z-score": "0.06233"}
{"sequence": "UGCAGAACUGGGUCAGAGC", "gene": "PPCDC", "seed-corrected z-score": "0.5446"}
{"sequence": "AAAUAUGUCAACAUCUUCC", "gene": "ACAT2", "seed-corrected z-score": "-0.3536"}
{"sequence": "AAGCGUAUAGAUUCAGGUG", "gene": "DGKK", "seed-corrected z-score": "-1.282"}
{"sequence": "AAACUGUCCGGAGAGUGGC", "gene": "FOXD3", "seed-corrected z-score": "-0.6646"}